The supplement of paper PMC10849652
The other results are listed elsewhere or left out.

Sequences of proteins named here, by UniProt entry; tags and fusion partners are left off. A change or cut given only in a name is not applied to a line headed by its entry.
UniProt Q86XR7, whole entry, looked up: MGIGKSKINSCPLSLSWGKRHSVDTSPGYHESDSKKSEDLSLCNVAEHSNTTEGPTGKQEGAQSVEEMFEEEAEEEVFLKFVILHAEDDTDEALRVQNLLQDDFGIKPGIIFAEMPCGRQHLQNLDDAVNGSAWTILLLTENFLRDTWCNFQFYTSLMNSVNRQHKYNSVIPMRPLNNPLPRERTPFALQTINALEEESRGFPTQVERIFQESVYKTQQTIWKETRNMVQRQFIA
UniProt Q96MV1: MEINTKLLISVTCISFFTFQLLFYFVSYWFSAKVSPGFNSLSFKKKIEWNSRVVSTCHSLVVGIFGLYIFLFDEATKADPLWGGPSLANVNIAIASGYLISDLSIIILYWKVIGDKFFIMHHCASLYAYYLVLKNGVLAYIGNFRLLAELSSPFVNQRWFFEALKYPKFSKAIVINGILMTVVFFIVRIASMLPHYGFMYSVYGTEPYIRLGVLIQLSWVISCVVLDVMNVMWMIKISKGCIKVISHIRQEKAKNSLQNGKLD
UniProt Q9UBB9: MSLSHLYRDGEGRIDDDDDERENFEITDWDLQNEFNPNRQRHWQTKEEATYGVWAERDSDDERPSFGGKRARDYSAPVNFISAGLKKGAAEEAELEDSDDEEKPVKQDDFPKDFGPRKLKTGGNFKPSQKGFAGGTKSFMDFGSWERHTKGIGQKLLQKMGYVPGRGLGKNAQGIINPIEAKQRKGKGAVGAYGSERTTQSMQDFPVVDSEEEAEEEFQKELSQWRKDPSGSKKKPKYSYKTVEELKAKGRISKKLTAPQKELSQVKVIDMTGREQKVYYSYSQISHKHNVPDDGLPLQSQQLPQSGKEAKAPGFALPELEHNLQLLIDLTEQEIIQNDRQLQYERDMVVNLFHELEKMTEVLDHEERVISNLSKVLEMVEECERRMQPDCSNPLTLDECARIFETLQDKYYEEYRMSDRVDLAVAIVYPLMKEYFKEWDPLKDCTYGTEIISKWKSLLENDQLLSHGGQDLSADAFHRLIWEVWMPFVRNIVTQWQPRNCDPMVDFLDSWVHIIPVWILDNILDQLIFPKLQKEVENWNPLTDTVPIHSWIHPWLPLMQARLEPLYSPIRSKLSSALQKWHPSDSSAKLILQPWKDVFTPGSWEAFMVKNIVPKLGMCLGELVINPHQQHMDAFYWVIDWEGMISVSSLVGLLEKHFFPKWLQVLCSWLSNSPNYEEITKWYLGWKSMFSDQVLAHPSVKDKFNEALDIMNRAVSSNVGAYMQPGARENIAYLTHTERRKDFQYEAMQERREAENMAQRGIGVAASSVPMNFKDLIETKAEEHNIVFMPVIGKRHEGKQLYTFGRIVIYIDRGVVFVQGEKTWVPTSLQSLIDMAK
UniProt Q96CP7: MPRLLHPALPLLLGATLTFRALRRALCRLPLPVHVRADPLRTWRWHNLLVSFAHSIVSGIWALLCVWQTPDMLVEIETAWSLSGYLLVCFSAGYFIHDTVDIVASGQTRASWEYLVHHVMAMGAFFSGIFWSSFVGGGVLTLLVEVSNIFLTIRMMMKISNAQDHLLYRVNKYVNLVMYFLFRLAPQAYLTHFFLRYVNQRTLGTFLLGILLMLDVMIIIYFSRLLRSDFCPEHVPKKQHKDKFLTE
UniProt O75347: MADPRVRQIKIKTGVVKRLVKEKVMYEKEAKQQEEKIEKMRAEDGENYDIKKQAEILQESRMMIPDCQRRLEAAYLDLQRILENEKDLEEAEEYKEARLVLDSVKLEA
UniProt Q04726: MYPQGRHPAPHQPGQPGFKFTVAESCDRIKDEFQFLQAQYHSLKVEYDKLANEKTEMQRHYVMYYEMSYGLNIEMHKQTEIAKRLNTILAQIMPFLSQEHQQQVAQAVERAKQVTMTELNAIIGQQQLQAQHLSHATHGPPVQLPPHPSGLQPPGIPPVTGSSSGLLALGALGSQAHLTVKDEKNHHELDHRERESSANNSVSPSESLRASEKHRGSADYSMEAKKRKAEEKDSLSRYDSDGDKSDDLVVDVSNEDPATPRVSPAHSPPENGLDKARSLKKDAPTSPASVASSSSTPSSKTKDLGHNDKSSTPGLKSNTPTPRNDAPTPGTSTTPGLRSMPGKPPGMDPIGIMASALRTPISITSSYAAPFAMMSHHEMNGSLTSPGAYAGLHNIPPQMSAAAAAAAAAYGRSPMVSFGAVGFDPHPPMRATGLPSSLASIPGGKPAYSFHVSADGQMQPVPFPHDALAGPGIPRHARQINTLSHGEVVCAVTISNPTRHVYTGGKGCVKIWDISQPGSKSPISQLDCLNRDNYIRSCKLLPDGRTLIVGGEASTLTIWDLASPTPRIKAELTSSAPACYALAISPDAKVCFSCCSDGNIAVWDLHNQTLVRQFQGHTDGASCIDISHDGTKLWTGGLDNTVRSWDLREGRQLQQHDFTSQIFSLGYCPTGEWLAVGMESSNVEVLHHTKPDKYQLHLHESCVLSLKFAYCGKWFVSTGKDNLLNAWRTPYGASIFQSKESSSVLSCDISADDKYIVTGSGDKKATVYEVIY
UniProt Q9NUJ3: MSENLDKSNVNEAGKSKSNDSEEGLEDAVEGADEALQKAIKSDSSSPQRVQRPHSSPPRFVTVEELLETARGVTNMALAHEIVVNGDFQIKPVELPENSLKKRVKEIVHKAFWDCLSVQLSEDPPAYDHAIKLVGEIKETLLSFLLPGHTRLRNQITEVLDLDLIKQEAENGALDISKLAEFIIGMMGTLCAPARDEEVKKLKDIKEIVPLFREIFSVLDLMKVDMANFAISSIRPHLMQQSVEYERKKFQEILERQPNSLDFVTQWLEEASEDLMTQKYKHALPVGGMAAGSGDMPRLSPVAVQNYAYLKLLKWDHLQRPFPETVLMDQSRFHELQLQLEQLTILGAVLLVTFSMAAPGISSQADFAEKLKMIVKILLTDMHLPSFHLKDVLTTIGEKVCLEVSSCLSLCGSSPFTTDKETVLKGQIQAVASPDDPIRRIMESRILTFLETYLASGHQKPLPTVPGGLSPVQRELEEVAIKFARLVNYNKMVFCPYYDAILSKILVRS
UniProt Q8NI27: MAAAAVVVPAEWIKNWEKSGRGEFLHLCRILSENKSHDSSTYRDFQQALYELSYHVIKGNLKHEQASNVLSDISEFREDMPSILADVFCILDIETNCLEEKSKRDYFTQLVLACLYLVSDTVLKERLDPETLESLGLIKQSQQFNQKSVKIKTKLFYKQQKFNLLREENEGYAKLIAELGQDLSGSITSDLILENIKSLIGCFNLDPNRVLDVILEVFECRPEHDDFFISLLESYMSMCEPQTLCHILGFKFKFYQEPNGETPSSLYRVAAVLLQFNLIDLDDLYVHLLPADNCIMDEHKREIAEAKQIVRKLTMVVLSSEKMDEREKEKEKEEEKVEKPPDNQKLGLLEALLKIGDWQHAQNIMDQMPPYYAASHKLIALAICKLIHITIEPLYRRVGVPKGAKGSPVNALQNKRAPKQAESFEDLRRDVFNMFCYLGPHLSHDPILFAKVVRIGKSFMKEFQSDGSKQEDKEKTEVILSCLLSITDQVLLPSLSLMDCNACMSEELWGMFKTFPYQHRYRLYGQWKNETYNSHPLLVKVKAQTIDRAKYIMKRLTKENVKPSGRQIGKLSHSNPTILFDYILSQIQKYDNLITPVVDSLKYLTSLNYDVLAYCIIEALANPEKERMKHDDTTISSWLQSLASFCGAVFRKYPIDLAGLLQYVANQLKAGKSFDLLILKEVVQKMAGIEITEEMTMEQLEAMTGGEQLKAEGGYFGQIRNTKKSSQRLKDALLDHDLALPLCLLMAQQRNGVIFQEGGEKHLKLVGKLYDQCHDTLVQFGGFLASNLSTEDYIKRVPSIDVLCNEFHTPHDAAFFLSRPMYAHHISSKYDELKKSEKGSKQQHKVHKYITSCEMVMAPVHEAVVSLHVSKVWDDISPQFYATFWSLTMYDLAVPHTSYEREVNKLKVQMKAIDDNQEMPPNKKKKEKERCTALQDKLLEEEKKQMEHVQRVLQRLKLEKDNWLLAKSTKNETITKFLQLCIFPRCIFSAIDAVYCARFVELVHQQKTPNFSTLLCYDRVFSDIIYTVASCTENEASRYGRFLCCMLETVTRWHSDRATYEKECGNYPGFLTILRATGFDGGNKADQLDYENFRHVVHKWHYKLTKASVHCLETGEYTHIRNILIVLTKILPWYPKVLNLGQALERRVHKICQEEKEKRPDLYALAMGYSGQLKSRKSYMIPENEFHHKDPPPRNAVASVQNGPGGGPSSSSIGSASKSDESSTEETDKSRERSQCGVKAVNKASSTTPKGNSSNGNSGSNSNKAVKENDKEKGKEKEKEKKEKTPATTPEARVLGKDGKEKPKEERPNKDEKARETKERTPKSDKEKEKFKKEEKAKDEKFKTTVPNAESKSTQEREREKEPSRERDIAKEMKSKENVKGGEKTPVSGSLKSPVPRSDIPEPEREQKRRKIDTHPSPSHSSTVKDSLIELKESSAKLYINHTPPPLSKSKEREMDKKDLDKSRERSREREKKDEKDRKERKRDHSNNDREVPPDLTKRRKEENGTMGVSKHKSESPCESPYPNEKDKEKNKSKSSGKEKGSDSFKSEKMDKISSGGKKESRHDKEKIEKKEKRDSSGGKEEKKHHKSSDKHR

Compound: c1cn2cc(-c3ccc4cn[nH]c4c3)nc(Nc3ccc(N4CCOCC4)cc3)c2n1 [entospletinib]
Experiment: log2 fold change, soluble protein after heating vs DMSO (PISA); higher = thermal stabilisation; K562 cells, 10 uM, 30 min; active = over 0.2 and 3.5 SD of the protein, either way, in both replicates (recomputed)
Outline: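 Thermal stability values are relative to control samples and come from duplicates. They are expressed as log2 fold changes. For measurement, K562 cells (2×10^6 cells/mL) received 10 μM compound for 30 min, and aliquots were heated for 3 min over 48°C-58°C, pooled, and extracted at 4°C in PBS with 0.5% NP-40. Soluble protein, the supernatant after 21,000xg for 90 min, was quantified by TMTpro 16plex LC-MS/MS with equalised channel sums.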

log2 fold change, inactive:
TCEAL4 isoform 2 (UniProt Q96EI5) -0.044
TCF12 isoform 3 (UniProt Q99081) 0.039
TGFB1 (UniProt P01137) -0.013
THOC5 (UniProt Q13769) 0.022
TDRD7 (UniProt Q8NHU6) -0.107
TGFBR3 (UniProt Q03167) 0.003
TIMM22 (UniProt Q9Y584) 0.121
TDRD15 (UniProt B5MCY1) 0.313
TICAM2 isoform 2 (UniProt Q86XR7) -0.04
THEM4 (UniProt Q5T1C6) 0.026
TLCD4 (UniProt Q96MV1) -0.019
TFIP11 (UniProt Q9UBB9) 0.114
TBC1D22A (UniProt Q8WUA7) -0.001
TF (UniProt P02787) 0.288
TLCD1 (UniProt Q96CP7) 0.037
TIA1 (UniProt P31483) 0.011
TBCA (UniProt O75347) 0
TBL3 (UniProt Q12788) 0.024
TGM2 (UniProt P21980) -0.049
TIMP1 (UniProt P01033) 0.036
TDRKH (UniProt Q9Y2W6) -0.102
TLE3 (UniProt Q04726) -0.064
TES (UniProt Q9UGI8) -0.004
THUMPD1 (UniProt Q9NXG2) -0.013
TET2 (UniProt Q6N021) 0.138
TDP2 isoform 2 (UniProt O95551) -0.02
TCP11L1 (UniProt Q9NUJ3) -0.057
THOC2 (UniProt Q8NI27) -0.034
TBPL1 (UniProt P62380) -0.014

Reprinted at random: 2 entries already listed, in no set order.
log2 fold change, inactive:
THOC2 (UniProt Q8NI27) -0.034
TCEAL4 isoform 2 (UniProt Q96EI5) -0.044
